At least one structure is not confirmed: it was looked up by name or label, or the drawing left a doubt.
Tested on: Olmsted syndrome
Type: in vivo, human
Protocol: We confirmed the diagnosis of severe Olmsted syndrome by identifying a missense c.2017C>T (p.Leu673Phe) mutation in TRPV3 present at the heterozygous in the patient. None of their parents had this mutation.
II—Off-Label Use of 1% Topical Sirolimus—Design
GMP Grade Sirolimus • from accredited distributor (Pharmacie des Hôpitaux de Paris) • 1% formulation in Dexeryl cream (emollient) • 1 g (1,250 euros) • 100 g preparation at 1% • 1 month stability • Kept at +4° C.
3 grams of the preparation at 1% applied daily on the right sole by the patient, with a disposable glove
Initially planned for 4 months
Phone contact every 2 weeks
Monthly routine laboratory tests
Daily pain diary rating the level of pain on a scale from 0 to 10 at least 2 different times of the day
Validated life quality evaluation (DLQI) every 2 weeks
Clinical pictures every 2 weeks
Clinical examination every month

SMILES: CO[C@H]1C[C@@H]2CC[C@@H](C)[C@@](O)(O2)C(=O)C(=O)N2CCCC[C@H]2C(=O)O[C@H]([C@H](C)C[C@@H]2CC[C@@H](O)[C@H](OC)C2)CC(=O)[C@H](C)/C=C(\C)[C@@H](O)[C@@H](OC)C(=O)[C@H](C)C[C@H](C)/C=C/C=C/C=C/1C [Sirolimus, sirolimus]
- Clinic examination: hyperkeratosis, skin inflammation, budding (clinical pictures in January 2016 (M2), treated right sole): partial reduction of hyperkeratosis, of skin inflammation and of budding
- Life quality evaluation (DLQI) (every 2 weeks during topical treatment): remained almost unchanged
- Clinical response one month following the start of topical treatment (right sole, hyperkeratosis, budding and inflammation reduced): good clinical response
- Course one month after stopping topical treatment (right sole, massive hyperkeratosis, budding and inflammation reappeared): rapid aggravation

From US20200129486A1, “METHODS AND PHARMACEUTICAL COMPOSITIONS FOR THE TREATMENT OF OLMSTED SYNDROME” (INSERM (Institut National de la Santé et de la Recherche …, priority 2017, published 2020)
